Test results published in doi:10.1101/2021.04.20.440571.
No constants are given. Whether binding was seen depends on the method and setting. In cells and extracts the contact can be indirect. Some results given as binding are weak or reduced against the parent protein; the word gives no strength.

Molecular target: Nesprin-1 (mouse (endogenous in IIA1.6)) (UniProt Q6ZWR6)
Test: co-IP

binding | Binder
binds | Sun-1 (protein, UniProt Q9D666 1-913) MDFSRLHTYTPPQCVPENTGYTYALSSSYSSDALDFETEHKLEPVFDSPRMSRRSLRLVTTASYSSGDSQAIDSHISTSRATPAKGRETRTVKQRRSASKPAFSINHLSGKGLSSSTSHDSSCSLRSATVLRHPVLDESLIREQTKVDHFWGLDDDGDLKGGNKAATQGNGELAAEVASSNGYTCRDCRMLSARTDALTAHSAIHGTTSRVYSRDRTLKPRGVSFYLDRTLWLAKSTSSSFASFIVQLFQVVLMKLNFETYKLKGYESRAYESQSYETKSHESEAHLGHCGRMTAGELSRVDGESLCDDCKGKKHLEIHTATHSQLPQPHRVAGAMGRLCIYTGDLLVQALRRTRAAGWSVAEAVWSVLWLAVSAPGKAASGTFWWLGSGWYQFVTLISWLNVFLLTRCLRNICKVFVLLLPLLLLLGAGVSLWGQGNFFSLLPVLNWTAMQPTQRVDDSKGMHRPGPLPPSPPPKVDHKASQWPQESDMGQKVASLSAQCHNHDERLAELTVLLQKLQIRVDQVDDGREGLSLWVKNVVGQHLQEMGTIEPPDAKTDFMTFHHDHEVRLSNLEDVLRKLTEKSEAIQKELEETKLKAGSRDEEQPLLDRVQHLELELNLLKSQLSDWQHLKTSCEQAGARIQETVQLMFSEDQQGGSLEWLLEKLSSRFVSKDELQVLLHDLELKLLQNITHHITVTGQAPTSEAIVSAVNQAGISGITEAQAHIIVNNALKLYSQDKTGMVDFALESGGGSILSTRCSETYETKTALLSLFGVPLWYFSQSPRVVIQPDIYPGNCWAFKGSQGYLVVRLSMKIYPTTFTMEHIPKTLSPTGNISSAPKDFAVYGLETEYQEEGQPLGRFTYDQEGDSLQMFHTLERPDQAFQIVELRVLSNWGHPEYTCLYRFRVHGEPIQ
no binding | Sun-2 (protein, UniProt Q8BJS4 1-731) MSRRSQRLTRYSQDDNDGGSSSSGASSVAGSQGTVFKDSPLRTLKRKSSNMKHLSPAPQLGPSSDSHTSYYSESVVRESYIGSPRAVSLARSALLDDHLHSEPYWSGDLRGRRRRGTGGSESSKANGLTAESKASEDFFGSSSGYSSEDDLAGYTDSDQHSSGSRLRSAASRAGSFVWTLVTFPGRLFGLLYWWIGTTWYRLTTAASLLDVFVLTRSRHFSLNLKSFLWFLLLLLLLTGLTYGAWHFYPLGLQTLQPAVVSWWAAKESRKQPEVWESRDASQHFQAEQRVLSRVHSLERRLEALAADFSSNWQKEAIRLERLELRQGAAGHGGGSSLSHEDALSLLEGLVSRREATLKEDLRRDTVAHIQEELATLRAEHHQDSEDLFKKIVQASQESEARVQQLKTEWKSMTQEAFQESSVKELGRLEAQLASLRQELAALTLKQNSVADEVGLLPQKIQAARADVESQFPDWIRQFLLGDRGARSGLLQRDEMHAQLQELENKILTKMAEMQGKSAREAAASLGQILQKEGIVGVTEEQVHRIVKQALQRYSEDRIGMVDYALESGGASVISTRCSETYETKTALLSLFGIPLWYHSQSPRVILQPDVHPGNCWAFQGPQGFAVVRLSARIRPTAVTLEHVPKALSPNSTISSAPKDFAIFGFDEDLQQEGTLLGTFAYDQDGEPIQTFYFQASKMATYQVVELRILTNWGHPEYTCIYRFRVHGEPAH
